Assay in all cases: log2 fold change, soluble protein after heating vs DMSO (PISA); higher = thermal stabilisation; K562 cells, 10 uM, 30 min; active = over 0.2 and 3.5 SD of the protein, either way, in both replicates (recomputed)
Compound in test [1]: COC1=CC=C(C=C1)CN2C=CC3=C2C=C(C=C3)C(=O)NO
In short, it runs like this:
(§1)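 K562 cells at 2×10^6 cells/mL were treated with 10 μM compound for 30 min. Aliquots were heated for 3 min across 48°C-58°C, pooled, and extracted in PBS with 0.5% NP-40 at 4°C; soluble protein was the supernatant after 21,000xg for 90 min. Soluble protein was quantified by TMTpro 16plex LC-MS/MS with channel sums equalised, and reported as log2 fold change in thermal stability against DMSO controls, with values from duplicates.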

The chains behind the UniProt entries cited, without tags or fusion partners. Where a name states a change or a piece, a line headed by the entry shows the natural chain unless it says otherwise.
UniProt Q8IYU8: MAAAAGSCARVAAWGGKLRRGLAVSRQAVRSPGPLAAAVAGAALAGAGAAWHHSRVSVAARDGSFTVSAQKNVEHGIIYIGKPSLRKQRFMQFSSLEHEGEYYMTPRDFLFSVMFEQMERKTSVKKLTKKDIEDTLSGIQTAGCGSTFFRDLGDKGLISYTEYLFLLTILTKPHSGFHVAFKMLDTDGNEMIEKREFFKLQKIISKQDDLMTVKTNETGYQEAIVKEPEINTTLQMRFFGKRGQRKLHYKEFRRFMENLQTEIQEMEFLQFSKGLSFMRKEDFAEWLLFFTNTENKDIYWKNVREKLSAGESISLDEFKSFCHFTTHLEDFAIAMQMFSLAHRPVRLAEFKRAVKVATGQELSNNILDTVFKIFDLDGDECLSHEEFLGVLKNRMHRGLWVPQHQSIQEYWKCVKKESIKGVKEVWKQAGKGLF
UniProt Q7L9L4: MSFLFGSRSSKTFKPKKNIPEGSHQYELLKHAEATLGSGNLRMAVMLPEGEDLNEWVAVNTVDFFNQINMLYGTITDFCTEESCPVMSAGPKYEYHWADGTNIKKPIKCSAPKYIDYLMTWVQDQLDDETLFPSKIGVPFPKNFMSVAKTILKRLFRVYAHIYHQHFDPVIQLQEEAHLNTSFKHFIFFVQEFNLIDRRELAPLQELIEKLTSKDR
UniProt Q9BWT6: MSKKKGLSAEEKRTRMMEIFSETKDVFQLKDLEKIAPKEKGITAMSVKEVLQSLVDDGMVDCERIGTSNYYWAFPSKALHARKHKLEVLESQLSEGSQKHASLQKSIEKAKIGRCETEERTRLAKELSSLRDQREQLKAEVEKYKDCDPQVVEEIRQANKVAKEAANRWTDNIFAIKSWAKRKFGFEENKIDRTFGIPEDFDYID
UniProt Q8N108: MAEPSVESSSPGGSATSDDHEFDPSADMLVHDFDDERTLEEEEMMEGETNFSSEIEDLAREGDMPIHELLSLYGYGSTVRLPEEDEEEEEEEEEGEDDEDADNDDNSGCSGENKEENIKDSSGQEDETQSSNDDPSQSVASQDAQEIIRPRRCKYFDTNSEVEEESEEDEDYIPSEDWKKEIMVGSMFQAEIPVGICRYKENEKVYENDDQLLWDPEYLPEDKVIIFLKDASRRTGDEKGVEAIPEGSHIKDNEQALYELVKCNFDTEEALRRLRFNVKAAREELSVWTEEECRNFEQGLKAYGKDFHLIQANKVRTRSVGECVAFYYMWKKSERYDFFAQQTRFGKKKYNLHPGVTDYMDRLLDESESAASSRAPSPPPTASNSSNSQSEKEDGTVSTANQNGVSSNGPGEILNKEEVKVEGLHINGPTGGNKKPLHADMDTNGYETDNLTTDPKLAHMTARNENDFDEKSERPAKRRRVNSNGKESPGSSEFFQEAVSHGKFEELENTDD
UniProt Q9H081: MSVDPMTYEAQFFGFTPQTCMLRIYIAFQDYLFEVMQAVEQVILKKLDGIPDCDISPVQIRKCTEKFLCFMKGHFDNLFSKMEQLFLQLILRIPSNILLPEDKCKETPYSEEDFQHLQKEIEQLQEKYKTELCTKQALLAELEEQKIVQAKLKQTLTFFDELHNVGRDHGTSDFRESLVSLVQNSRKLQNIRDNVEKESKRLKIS
UniProt Q9NQG6: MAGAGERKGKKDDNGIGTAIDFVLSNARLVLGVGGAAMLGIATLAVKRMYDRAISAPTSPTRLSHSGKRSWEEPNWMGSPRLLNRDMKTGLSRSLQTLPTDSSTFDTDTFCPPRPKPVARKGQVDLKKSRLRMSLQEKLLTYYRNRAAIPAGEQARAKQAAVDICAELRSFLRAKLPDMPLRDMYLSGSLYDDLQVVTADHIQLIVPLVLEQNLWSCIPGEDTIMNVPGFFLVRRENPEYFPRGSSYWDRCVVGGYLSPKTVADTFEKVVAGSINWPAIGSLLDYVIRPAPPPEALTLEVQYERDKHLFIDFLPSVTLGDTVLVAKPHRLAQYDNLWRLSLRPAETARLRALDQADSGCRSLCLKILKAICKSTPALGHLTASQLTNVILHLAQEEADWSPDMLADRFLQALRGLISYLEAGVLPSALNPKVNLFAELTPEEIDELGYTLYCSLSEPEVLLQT
UniProt O95396: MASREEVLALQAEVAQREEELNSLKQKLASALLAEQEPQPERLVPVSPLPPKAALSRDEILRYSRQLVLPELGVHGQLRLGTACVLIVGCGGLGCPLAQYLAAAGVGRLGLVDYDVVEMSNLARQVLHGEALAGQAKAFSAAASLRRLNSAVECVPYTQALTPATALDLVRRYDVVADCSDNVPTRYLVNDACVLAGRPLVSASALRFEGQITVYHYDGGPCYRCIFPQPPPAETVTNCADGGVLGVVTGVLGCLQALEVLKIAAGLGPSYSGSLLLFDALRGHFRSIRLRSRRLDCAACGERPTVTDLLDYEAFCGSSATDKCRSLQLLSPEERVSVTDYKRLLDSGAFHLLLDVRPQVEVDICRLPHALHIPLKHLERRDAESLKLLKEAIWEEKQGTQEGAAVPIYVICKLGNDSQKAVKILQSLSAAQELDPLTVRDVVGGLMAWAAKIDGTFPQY
UniProt Q6WCQ1: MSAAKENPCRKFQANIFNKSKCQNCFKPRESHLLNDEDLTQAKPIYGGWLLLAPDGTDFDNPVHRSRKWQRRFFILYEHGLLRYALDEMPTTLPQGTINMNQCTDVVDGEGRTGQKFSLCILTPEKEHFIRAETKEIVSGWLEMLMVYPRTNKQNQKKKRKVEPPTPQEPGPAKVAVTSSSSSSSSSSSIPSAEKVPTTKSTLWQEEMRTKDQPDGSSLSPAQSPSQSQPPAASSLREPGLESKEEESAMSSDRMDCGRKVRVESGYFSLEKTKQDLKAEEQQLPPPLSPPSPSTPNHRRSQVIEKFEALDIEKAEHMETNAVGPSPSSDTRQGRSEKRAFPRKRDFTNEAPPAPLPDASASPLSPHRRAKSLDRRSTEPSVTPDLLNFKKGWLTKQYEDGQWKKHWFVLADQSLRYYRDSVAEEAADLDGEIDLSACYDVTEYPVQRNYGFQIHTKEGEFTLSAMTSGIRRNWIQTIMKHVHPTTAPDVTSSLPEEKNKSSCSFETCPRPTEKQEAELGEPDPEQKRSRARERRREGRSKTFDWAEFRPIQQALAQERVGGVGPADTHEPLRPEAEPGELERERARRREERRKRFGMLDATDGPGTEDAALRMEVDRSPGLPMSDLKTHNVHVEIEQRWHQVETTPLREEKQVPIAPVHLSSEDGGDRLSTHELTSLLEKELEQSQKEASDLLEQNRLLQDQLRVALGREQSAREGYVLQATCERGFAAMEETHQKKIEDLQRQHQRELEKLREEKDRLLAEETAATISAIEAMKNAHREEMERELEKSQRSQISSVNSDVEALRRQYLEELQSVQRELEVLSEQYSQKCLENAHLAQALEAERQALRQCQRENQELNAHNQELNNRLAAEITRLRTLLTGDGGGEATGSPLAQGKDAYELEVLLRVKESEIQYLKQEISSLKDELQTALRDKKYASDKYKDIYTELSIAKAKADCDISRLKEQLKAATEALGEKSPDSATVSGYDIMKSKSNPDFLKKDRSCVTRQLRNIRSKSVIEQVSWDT
UniProt Q13724: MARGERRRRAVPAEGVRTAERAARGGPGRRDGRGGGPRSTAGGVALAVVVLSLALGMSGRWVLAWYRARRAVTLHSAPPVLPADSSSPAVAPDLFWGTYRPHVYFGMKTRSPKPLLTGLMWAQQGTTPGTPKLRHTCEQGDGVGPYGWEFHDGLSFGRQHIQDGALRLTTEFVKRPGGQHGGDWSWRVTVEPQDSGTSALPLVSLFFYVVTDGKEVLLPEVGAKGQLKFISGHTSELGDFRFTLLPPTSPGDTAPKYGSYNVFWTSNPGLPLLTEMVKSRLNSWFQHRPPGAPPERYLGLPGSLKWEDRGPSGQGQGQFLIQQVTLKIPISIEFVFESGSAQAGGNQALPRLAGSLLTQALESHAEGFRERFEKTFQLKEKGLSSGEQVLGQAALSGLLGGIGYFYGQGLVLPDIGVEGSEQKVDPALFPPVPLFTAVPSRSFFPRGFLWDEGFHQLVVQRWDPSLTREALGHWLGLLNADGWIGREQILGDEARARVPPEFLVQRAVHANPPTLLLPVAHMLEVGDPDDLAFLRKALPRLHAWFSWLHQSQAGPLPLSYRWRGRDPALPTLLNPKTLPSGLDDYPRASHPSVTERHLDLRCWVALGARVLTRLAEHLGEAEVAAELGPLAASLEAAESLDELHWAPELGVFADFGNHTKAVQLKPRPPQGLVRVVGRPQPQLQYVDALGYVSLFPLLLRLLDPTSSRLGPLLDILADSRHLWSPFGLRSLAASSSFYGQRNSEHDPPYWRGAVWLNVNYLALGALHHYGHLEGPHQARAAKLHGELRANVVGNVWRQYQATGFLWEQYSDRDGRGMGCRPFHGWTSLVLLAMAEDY
UniProt Q9Y605: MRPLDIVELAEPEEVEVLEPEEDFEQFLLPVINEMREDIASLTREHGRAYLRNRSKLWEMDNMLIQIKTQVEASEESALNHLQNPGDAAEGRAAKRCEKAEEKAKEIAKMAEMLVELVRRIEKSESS

Compound in the next test: CON(C)C(=O)N1N=C(c2cc(F)ccc2F)S[C@@]1(CCCN)c1ccccc1 [filanesib]
The method, boiled down:
as §1

Compound in a further test: CO[C@H]1C[C@@H]2CC[C@@H](C)[C@@](O)(O2)C(=O)C(=O)N2CCCC[C@H]2C(=O)O[C@H]([C@H](C)C[C@@H]2CC[C@H](n3cnnn3)[C@H](OC)C2)CC(=O)[C@H](C)/C=C(\C)[C@@H](O)[C@@H](OC)C(=O)[C@H](C)C[C@H](C)/C=C/C=C/C=C/1C [zotarolimus]
The method, boiled down: as §1

Compound in the next test: COc1cc(C(=O)O)ccc1NC(=O)[C@@H]1N[C@@H](CC(C)(C)C)[C@](C#N)(c2ccc(Cl)cc2F)[C@H]1c1cccc(Cl)c1F [idasanutlin]
The method, boiled down: as §1

Compound in a further test: COc1cc(Nc2ncc3c(n2)-c2ccc(Cl)cc2C(c2c(F)cccc2OC)=NC3)ccc1C(=O)O [alisertib]
The method, boiled down: as §1

Compound in test [2]: COc1cc2nc(-c3cc(F)ccc3O)nc(N[C@@H]3CNC[C@H]3C(C)(C)O)c2cc1OC
The method, boiled down:
as §1

Compound in the next test: COc1cc2ncnc(Nc3ccc(F)c(Cl)c3)c2cc1OCCCN1CCOCC1 [gefitinib]
In short, it runs like this: as §1

Compound in test [3]: COc1cccc2cc(-c3nc([C@H]4CC[C@H](C(=O)O)CC4)n4ncnc(N)c34)[nH]c12
The method, boiled down:
as §1

Compound in a further test: CS(=O)(=O)CCNCc1ccc(-c2ccc3ncnc(Nc4ccc(OCc5cccc(F)c5)c(Cl)c4)c3c2)o1 [lapatinib]
In short, it runs like this: as §1

Compound in another test: CS(=O)(=O)N1CCN(Cc2cc3nc(-c4cccc5[nH]ncc45)nc(N4CCOCC4)c3s2)CC1 [pictilisib]
In short, it runs like this:
as §1

In the supplement of paper PMC10849652 one finds log2 fold change data, which are given here for 15 targets.

The other results are listed elsewhere or left out.

For MRPL10 isoform 2 (UniProt Q7Z7H8), the log2 fold change was inactive: -0.043 in test [1]; inactive: 0.188 with filanesib; inactive: 0.033 in the test with zotarolimus; inactive: -0.08 with idasanutlin; inactive: 0.047 with alisertib; inactive: -0.04 in test [2]. The log2 fold change is inactive: -0.06 in the test with gefitinib, inactive: -0.005 in test [3], inactive: 0.031 with lapatinib and inactive: -0.116 in the test with pictilisib.

Regarding MICU2 (UniProt Q8IYU8), the log2 fold change in test [1] is inactive: 0.067; with filanesib it was inactive: -0.089; in the test with zotarolimus, inactive: -0.142; in the test with idasanutlin it was inactive: 0.022; in the test with alisertib, inactive: -0.067; in test [2], inactive: -0.21. Moreover, the log2 fold change in the test with gefitinib is inactive: 0.038; in [3] it was inactive: -0.031; with lapatinib it was inactive: -0.031; with pictilisib, inactive: 0.005.

For MOB1B isoform 2 (UniProt Q7L9L4), the log2 fold change in test [1] is inactive: -0.021; in the test with filanesib it was inactive: -0.107; with zotarolimus it was inactive: 0; with idasanutlin it was inactive: -0.048; in the test with alisertib, inactive: 0.014; in test [2] it was inactive: -0.023. In addition, the log2 fold change is inactive: 0.012 with gefitinib, inactive: 0.058 in [3], inactive: 0.008 with lapatinib and inactive: -0.042 with pictilisib.

On to MND1 (UniProt Q9BWT6), for which the log2 fold change in test [1] is inactive: -0.037; in the test with filanesib it was inactive: -0.057; in the test with zotarolimus it was inactive: -0.077; with idasanutlin, inactive: 0.099; with alisertib it was inactive: 0.062; in test [2], inactive: -0.235. In addition, the log2 fold change in the test with gefitinib is inactive: -0.193; in test [3] it was inactive: 0.03; with lapatinib it was inactive: -0.025; in the test with pictilisib, inactive: 0.032.

As to MIER1 isoform 12 (UniProt Q8N108), the log2 fold change was inactive: -0.041 in test [1]; inactive: -0.067 with filanesib; inactive: -0.015 in the test with zotarolimus; inactive: -0.04 with idasanutlin; inactive: -0.023 in the test with alisertib; inactive: -0.039 in [2]. The log2 fold change in the test with gefitinib is inactive: -0.001; in [3], inactive: 0.014; with lapatinib, inactive: 0.011; with pictilisib, inactive: -0.066.

Consider MIS12 (UniProt Q9H081), for which the log2 fold change in test [1] was inactive: 0.079; with filanesib, inactive: 0.004; with zotarolimus, inactive: 0.077; in the test with idasanutlin, inactive: -0.011; in the test with alisertib it was inactive: 0.06; in test [2], inactive: 0.035. The log2 fold change was inactive: 0.026 with gefitinib, inactive: 0.032 in test [3], inactive: -0.048 with lapatinib and inactive: -0.005 in the test with pictilisib.

As for MIEF1 (UniProt Q9NQG6), the log2 fold change in test [1] was inactive: 0.053; in the test with filanesib, inactive: -0.18; with zotarolimus, inactive: 0.006; with idasanutlin, inactive: -0.066; with alisertib, inactive: -0.033; in test [2] it was active: -0.382. In addition, the log2 fold change with gefitinib is inactive: 0.051; in test [3] it was inactive: 0.001; with lapatinib, inactive: 0.004; with pictilisib it was inactive: -0.027.

As to MOCS3 (UniProt O95396), the log2 fold change is inactive: 0.023 in test [1]; inactive: -0.005 in the test with filanesib; inactive: 0.032 in the test with zotarolimus; inactive: -0.039 with idasanutlin; inactive: 0.151 with alisertib; inactive: 0.134 in test [2]. Besides, the log2 fold change with gefitinib was inactive: 0.041; in test [3], inactive: -0.092; with lapatinib, inactive: -0.006; in the test with pictilisib, inactive: 0.114.

Take MPRIP isoform 2 (UniProt Q6WCQ1): the log2 fold change is inactive: 0.101 in [1]; inactive: 0.064 in the test with filanesib; inactive: 0.065 with zotarolimus; inactive: 0.045 in the test with idasanutlin; inactive: 0.133 with alisertib; inactive: -0.191 in test [2]. The log2 fold change with gefitinib is inactive: 0.016; in test [3], inactive: 0.089; with lapatinib it was inactive: -0.03; with pictilisib, inactive: -0.01.

Turning to MRPL44 (UniProt Q9H9J2), the log2 fold change in test [1] was inactive: 0; with filanesib, inactive: 0.124; with zotarolimus, inactive: 0.096; with idasanutlin it was inactive: -0.041; in the test with alisertib it was inactive: -0.01; in test [2], inactive: -0.015. Moreover, the log2 fold change in the test with gefitinib is inactive: -0.056; in test [3] it was inactive: -0.009; with lapatinib it was inactive: 0.141; in the test with pictilisib, inactive: -0.149.

Regarding MRPL32 (UniProt Q9BYC8), the log2 fold change is inactive: 0.049 in test [1]; inactive: 0.166 in the test with filanesib; inactive: -0.086 in the test with zotarolimus; inactive: 0.17 with idasanutlin; inactive: -0.024 in the test with alisertib; inactive: -0.087 in [2]. For the same target, the log2 fold change with gefitinib is inactive: -0.038; in test [3] it was inactive: -0.099; with lapatinib, inactive: 0.111; in the test with pictilisib, inactive: -0.017.

For the target MRPL21 (UniProt Q7Z2W9), the log2 fold change in test [1] is inactive: -0.069; in the test with filanesib it was inactive: 0.123; with zotarolimus it was inactive: 0.102; in the test with idasanutlin, inactive: -0.083; in the test with alisertib, inactive: -0.11; in test [2] it was inactive: -0.001. Also, the log2 fold change with gefitinib was inactive: -0.07; in [3], inactive: -0.054; with lapatinib, inactive: 0.167; with pictilisib, inactive: -0.027.

Turning to MOGS (UniProt Q13724), the log2 fold change in [1] was inactive: -0.002; with filanesib it was inactive: 0.007; with zotarolimus it was inactive: 0.019; with idasanutlin it was inactive: 0.009; with alisertib, inactive: -0.037; in test [2] it was inactive: -0.061. Moreover, the log2 fold change in the test with gefitinib was inactive: -0.002; in [3], inactive: -0.027; with lapatinib, inactive: 0.114; with pictilisib it was inactive: 0.015.

MRPL40 (UniProt Q9NQ50): the log2 fold change in test [1] is inactive: -0.046; with filanesib, inactive: 0.154; in the test with zotarolimus it was inactive: 0.084; with idasanutlin it was inactive: 0.003; in the test with alisertib, inactive: -0.093; in [2], inactive: -0.097. Also, the log2 fold change with gefitinib is inactive: -0.071; in test [3], inactive: -0.038; with lapatinib it was inactive: 0.093; in the test with pictilisib, inactive: 0.011.

Take MRFAP1 (UniProt Q9Y605): the log2 fold change is inactive: 0.015 in test [1]; inactive: -0.012 in the test with filanesib; inactive: -0.018 in the test with zotarolimus; inactive: 0.173 in the test with idasanutlin; inactive: -0.435 with alisertib; inactive: -0.154 in test [2]. The log2 fold change in the test with gefitinib is inactive: -0.036; in test [3], inactive: 0.157; in the test with lapatinib, inactive: -0.093; with pictilisib it was inactive: -0.01.
